Source: PMC12147180
Results are given in words; binding and its absence hold for the method and conditions named. Binding seen in cells or lysates may run through a third protein. Binding calls can cover weak binding; strength is not graded here.

Amino acid sequences for entries named in this document (tags omitted). A change or cut given only in a name is not applied to a line headed by its entry.
UniProt P51686: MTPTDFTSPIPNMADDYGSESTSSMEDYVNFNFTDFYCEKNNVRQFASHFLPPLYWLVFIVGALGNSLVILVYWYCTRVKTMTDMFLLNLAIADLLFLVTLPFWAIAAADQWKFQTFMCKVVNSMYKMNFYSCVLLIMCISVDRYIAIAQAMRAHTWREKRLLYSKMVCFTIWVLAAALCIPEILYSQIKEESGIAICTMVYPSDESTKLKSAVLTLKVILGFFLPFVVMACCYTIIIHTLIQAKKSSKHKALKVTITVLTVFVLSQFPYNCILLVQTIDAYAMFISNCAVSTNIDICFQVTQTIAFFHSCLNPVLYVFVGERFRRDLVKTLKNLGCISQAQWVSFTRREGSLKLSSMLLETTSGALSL

Target: CCR9 C1 (CCR9-RlucII with S335A/T347A/S352A/S356A/S357A) (human) (UniProt P51686)
Test: FRET or BRET; live HEK293 cells (parental; also ΔGRK2/3 and ΔGRK5/6 cells, where recruitment was only partially impacted) co-transfected with CCR9-RlucII (WT or ST/A mutants) and GFP10-β-arrestin2; 200 nM CCL25 or a titration of CCL25; HBSS + 0.1% BSA, Prolume Purple, 37 °C

Substance: GFP10-β-arrestin2 (from UniProt P32121 1-409)
- binding: binds
